Consider 14 molecules from PMC6068138, “Identification of a 57S translation complex containing closed-loop factors and the 60S ribosome subunit” (Scientific Reports, 2018).

The chains behind the UniProt entries cited, without tags or fusion partners.
UniProt Q12213: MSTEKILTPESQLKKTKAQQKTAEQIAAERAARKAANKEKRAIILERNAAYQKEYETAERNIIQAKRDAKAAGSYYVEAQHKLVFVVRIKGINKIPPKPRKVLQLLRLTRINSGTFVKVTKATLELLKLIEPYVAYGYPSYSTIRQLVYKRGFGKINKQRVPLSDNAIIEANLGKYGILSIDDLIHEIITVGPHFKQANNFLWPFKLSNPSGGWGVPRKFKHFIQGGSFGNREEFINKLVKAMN
UniProt P06103: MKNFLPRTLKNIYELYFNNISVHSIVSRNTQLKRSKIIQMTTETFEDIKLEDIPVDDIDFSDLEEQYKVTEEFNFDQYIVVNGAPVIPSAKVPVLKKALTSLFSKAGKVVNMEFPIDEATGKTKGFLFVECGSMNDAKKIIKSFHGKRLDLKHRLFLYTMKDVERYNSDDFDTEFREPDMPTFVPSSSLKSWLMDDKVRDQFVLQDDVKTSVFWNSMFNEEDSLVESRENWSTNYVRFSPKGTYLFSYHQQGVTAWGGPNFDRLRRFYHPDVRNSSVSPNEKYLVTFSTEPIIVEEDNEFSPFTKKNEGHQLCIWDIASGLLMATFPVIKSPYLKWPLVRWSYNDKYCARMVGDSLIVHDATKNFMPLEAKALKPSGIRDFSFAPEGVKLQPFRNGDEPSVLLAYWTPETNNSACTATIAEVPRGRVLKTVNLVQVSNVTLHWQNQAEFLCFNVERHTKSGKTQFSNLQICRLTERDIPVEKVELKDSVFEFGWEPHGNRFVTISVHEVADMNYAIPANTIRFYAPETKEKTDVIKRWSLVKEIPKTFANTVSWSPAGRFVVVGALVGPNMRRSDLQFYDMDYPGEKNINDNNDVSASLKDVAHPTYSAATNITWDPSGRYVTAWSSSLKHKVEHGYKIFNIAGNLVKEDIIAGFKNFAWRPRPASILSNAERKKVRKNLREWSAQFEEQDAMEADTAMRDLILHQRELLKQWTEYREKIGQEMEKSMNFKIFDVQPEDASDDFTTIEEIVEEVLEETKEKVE
UniProt P0CX53: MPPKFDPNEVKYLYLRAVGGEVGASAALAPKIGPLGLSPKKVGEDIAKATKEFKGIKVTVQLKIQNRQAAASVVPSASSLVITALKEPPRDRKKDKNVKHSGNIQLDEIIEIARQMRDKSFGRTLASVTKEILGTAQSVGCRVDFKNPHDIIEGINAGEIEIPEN

T1: Flag-PAB1 (poly(A)-binding protein) (Saccharomyces cerevisiae, UniProt P04147 1-577)
T1 construct: bait of the one-step Flag pull down; also called PAB1-Flag; source: S. cerevisiae, expressed from plasmid YC776 (Flag-PAB1 URA3), in cell extract
T1 sequence (looked up): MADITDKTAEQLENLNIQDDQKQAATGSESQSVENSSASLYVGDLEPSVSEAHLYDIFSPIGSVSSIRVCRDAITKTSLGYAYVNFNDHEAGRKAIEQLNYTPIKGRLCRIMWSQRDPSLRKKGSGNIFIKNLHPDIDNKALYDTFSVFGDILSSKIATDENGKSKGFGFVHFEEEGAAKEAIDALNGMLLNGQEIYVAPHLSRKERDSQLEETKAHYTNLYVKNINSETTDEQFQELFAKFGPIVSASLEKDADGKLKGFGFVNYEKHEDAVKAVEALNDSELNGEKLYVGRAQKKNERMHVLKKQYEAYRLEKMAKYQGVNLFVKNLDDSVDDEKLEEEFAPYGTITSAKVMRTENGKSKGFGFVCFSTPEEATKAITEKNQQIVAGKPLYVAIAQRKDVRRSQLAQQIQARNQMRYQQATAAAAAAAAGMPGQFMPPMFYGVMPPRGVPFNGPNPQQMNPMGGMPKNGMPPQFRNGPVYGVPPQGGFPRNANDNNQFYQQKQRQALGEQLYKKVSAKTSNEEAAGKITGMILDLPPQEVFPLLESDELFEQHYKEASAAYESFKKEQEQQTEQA

T2: eIF4E-Flag (mRNA cap binding protein) (Saccharomyces cerevisiae, UniProt P07260 1-213)
T2 construct: bait of the one-step Flag pull down; also called eIF4-Flag; source: S. cerevisiae, expressed from plasmid YC801 (eIF4E-Flag URA3), in cell extract
T2 sequence (looked up): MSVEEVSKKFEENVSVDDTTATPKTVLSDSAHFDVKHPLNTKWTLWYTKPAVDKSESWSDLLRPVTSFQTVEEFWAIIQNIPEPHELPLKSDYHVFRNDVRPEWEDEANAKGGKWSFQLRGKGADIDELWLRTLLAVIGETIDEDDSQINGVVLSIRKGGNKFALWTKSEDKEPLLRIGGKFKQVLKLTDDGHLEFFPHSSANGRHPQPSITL

B1: RPS4B-GFP (protein, UniProt P0CX36 1-261)
chain: MARGPKKHLKRLAAPHHWLLDKLSGCYAPRPSAGPHKLRESLPLIVFLRNRLKYALNGREVKAILMQRHVKVDGKVRTDTTYPAGFMDVITLDATNENFRLVYDVKGRFAVHRITDEEASYKLGKVKKVQLGKKGVPYVVTHDGRTIRYPDPNIKVNDTVKIDLASGKITDFIKFDAGKLVYVTGGRNLGRIGTIVHKERHDGGFDLVHIKDSLDNTFVTRLNNVFVIGEQGKPYISLPKGKGIKLSIAEERDRRRAQQGL
B2: RPL6B-GFP (natural protein, Saccharomyces cerevisiae, UniProt P05739 1-176, looked up)
chain: MTAQQAPKWYPSEDVAAPKKTRKAVRPQKLRASLVPGTVLILLAGRFRGKRVVYLKHLEDNTLLVTGPFKVNGVPLRRVNARYVIATSTKVSVEGVNVEKFNVEYFAKEKLTKKEKKEANLFPEQQTKEIKTERVEDQKVVDKALLAEIKKTPLLKQYLSASFSLKNGDKPHLLKF
notes: large ribosomal subunit protein RPL6B, Saccharomyces cerevisiae; part of the 60S ribosomal subunit in the extract; source: S. cerevisiae strain carrying the GFP fusion, in cell extract
B3: eIF4G1, GFP tagged (natural protein, Saccharomyces cerevisiae, UniProt P39935 1-952, looked up)
chain: MTDETAHPTQSASKQESAALKQTGDDQQESQQQRGYTNYNNGSNYTQKKPYNSNRPHQQRGGKFGPNRYNNRGNYNGGGSFRGGHMGANSSNVPWTGYYNNYPVYYQPQQMAAAGSAPANPIPVEEKSPVPTKIEITTKSGEHLDLKEQHKAKLQSQERSTVSPQPESKLKETSDSTSTSTPTPTPSTNDSKASSEENISEAEKTRRNFIEQVKLRKAALEKKRKEQLEGSSGNNNIPMKTTPENVEEKGSDKPEVTEKTKPAEEKSAEPEVKQETPAEEGEQGEKGQIKEESTPKVLTFAERLKLKKQQKEREEKTEGKENKEVPVQEETKSAIESAPVPPSEQVKEETEVAETEQSNIDESATTPAIPTKSDEAEAEVEAEAGDAGTKIGLEAEIETTTDETDDGTNTVSHILNVLKDATPIEDVFSFNYPEGIEGPDIKYKKEHVKYTYGPTFLLQFKDKLNVKADAEWVQSTASKIVIPPGMGRGNRSRDSGRFGNNSSRGHDFRNTSVRNMDDRANSRTSSKRRSKRMNDDRRSNRSYTSRRDRERGSYRNEEKREDDKPKEEVAPLVPSANRWVPKFKSKKTEKKLAPDGKTELLDKDEVERKMKSLLNKLTLEMFDAISSEILAIANISVWETNGETLKAVIEQIFLKACDEPHWSSMYAQLCGKVVKELNPDITDETNEGKTGPKLVLHYLVARCHAEFDKGWTDKLPTNEDGTPLEPEMMSEEYYAAASAKRRGLGLVRFIGFLYRLNLLTGKMMFECFRRLMKDLTDSPSEETLESVVELLNTVGEQFETDSFRTGQATLEGSQLLDSLFGILDNIIQTAKISSRIKFKLIDIKELRHDKNWNSDKKDNGPKTIQQIHEEEERQRQLKNNSRSNSRRTNNSSNRHSFRRDAPPASKDSFITTRTYSQRNSQRAPPPKEEPAAPTSTATNMFSALMGESDDEE
notes: eIF4G1, Saccharomyces cerevisiae; source: S. cerevisiae strain carrying the GFP fusion, in cell extract
B4: PAB1, GFP tagged (natural protein, Saccharomyces cerevisiae, UniProt P04147 1-577, looked up)
chain: T1 sequence (looked up)
notes: source: S. cerevisiae strain carrying the GFP fusion, in cell extract
B5: eIF4G2-GFP (natural protein, Saccharomyces cerevisiae, UniProt P39936 1-914, looked up)
chain: MTDQRGPPPPHPQQANGYKKFPPHDNQYSGANNSQPNNHYNENLYSAREPHNNKQYQSKNGKYGTNKYNNRNNSQGNAQYYNNRFNNGYRLNNNDYNPAMLPGMQWPANYYAPQMYYIPQQMVPVASPPYTHQPLNTNPEPPSTPKTTKIEITTKTGERLNLKKFHEEKKASKGEEKNDGVEQKSKSGTPFEKEATPVLPANEAVKDTLTETSNEKSTSEAENTKRLFLEQVRLRKAAMERKKNGLISETEKKQETSNHDNTDTTKPNSVIESEPIKEAPKPTGEANEVVIDGKSGASVKTPQHVTGSVTKSVTFNEPENESSSQDVDELVKDDDTTEISDTTGGKTVNKSDDETINSVITTEENTVKETEPSTSDIEMPTVSQLLETLGKAQPISDIYEFAYPENVERPDIKYKKPSVKYTYGPTFLLQFKDKLKFRPDPAWVEAVSSKIVIPPHIARNKPKDSGRFGGDFRSPSMRGMDHTSSSRVSSKRRSKRMGDDRRSNRGYTSRKDREKAAEKAEEQAPKEEIAPLVPSANRWIPKSRVKKTEKKLAPDGKTELFDKEEVERKMKSLLNKLTLEMFDSISSEILDIANQSKWEDDGETLKIVIEQIFHKACDEPHWSSMYAQLCGKVVKDLDPNIKDKENEGKNGPKLVLHYLVARCHEEFEKGWADKLPAGEDGNPLEPEMMSDEYYIAAAAKRRGLGLVRFIGYLYCLNLLTGKMMFECFRRLMKDLNNDPSEETLESVIELLNTVGEQFEHDKFVTPQATLEGSVLLDNLFMLLQHIIDGGTISNRIKFKLIDVKELREIKHWNSAKKDAGPKTIQQIHQEEEQLRQKKNSQRSNSRFNNHNQSNSNRYSSNRRNMQNTQRDSFASTKTGSFRNNQRNARKVEEVSQAPRANMFDALMNNDGDSD
notes: eIF4G2, Saccharomyces cerevisiae; also called TIF4632-GFP; source: S. cerevisiae strain RP2384 (TIF4632-GFP::G418), in cell extract
B6: RPS4A, GFP tagged (protein, UniProt P0CX35 1-261)
chain: B1 chain
B7: eIF4E, GFP tagged (natural protein, Saccharomyces cerevisiae, UniProt P07260 1-213, looked up)
chain: T2 sequence (looked up)
notes: as for B4
B8: RPL14B, GFP tagged (protein, UniProt P38754 1-138)
chain: MSTDSIVKASNWRLVEVGRVVLIKKGQSAGKLAAIVEIIDQKKVLIDGPKAGVPRQAINLGQVVLTPLTFALPRGARTATVSKKWAAAGVCEKWAASSWAKKIAQRERRAALTDFERFQVMVLRKQKRYTVKKALAKA
B9: RPL7A, GFP tagged (protein, UniProt P05737 1-244)
chain: MAAEKILTPESQLKKSKAQQKTAEQVAAERAARKAANKEKRAIILERNAAYQKEYETAERNIIQAKRDAKAAGSYYVEAQHKLVFVVRIKGINKIPPKPRKVLQLLRLTRINSGTFVKVTKATLELLKLIEPYVAYGYPSYSTIRQLVYKRGFGKINKQRVPLSDNAIIEANLGKYGILSIDDLIHEIITVGPHFKQANNFLWPFKLSNPSGGWGVPRKFKHFIQGGSFGNREEFINKLVKSMN
B10: RPL7B, GFP tagged (protein, UniProt Q12213 1-244)
chain: B9 chain with A2S, A3T, S16T, V26I, S242A
B11: RPS30B, GFP tagged (protein, UniProt P0CX34 1-63)
chain: MAKVHGSLARAGKVKSQTPKVEKTEKPKKPKGRAYKRLLYTRRFVNVTLVNGKRRMNPGPSVQ

Where a chain is given by its changes, count along the chain named. These are yes or no findings as the source states them, for the method shown. Binding seen in cells or lysates may run through a third protein. Some entries that bind do so weakly or less than the wild type. For some assays here: Tags and fused reporters may be left off the sequences shown.

In the first experiment the target is T1, Flag-PAB1 (poly(A)-binding protein). Put plainly: co-IP + AUC; Flag-PAB1 pull down in the presence of formaldehyde (cross-linking before cell lysis), then AU-FDS.
Turning to “eIF3b (from UniProt P06103 1-763) (other; other documents disagree on this pair)”, the binding result is recorded as “binds”.

Another experiment concerns the target T2, eIF4E-Flag (mRNA cap binding protein). Description: co-IP + AUC; one-step Flag pull down of eIF4E-Flag from yeast cell extracts (cycloheximide added before lysis); Flag eluate analysed by AU-FDS for the GFP tagged protein, 20 °C, 15,000 rpm; cells on glucose or glucose depleted 10 min.
Consider B1, for which the binding entry is listed as “binds”.
Take B2: the binding entry is recorded as “binds”.
As to B3, the binding result is recorded as “binds”.
Same read-out and setting: to B4 belongs “binds”.
For B5, the binding result is given as “binds”.

The next experiment deals with T1, Flag-PAB1 (poly(A)-binding protein). Description: co-IP + AUC; one-step Flag pull down of Flag-PAB1 from yeast cell extracts (cycloheximide added before lysis); Flag eluate analysed by AU-FDS for the GFP tagged protein, 20 °C, 15,000 rpm; cells on glucose, glucose depleted 10 min, glucose added back 1 min, or 30 °C to 46 °C 1 min.
For “RPL12A, GFP tagged (from UniProt P0CX53 1-165)”, the binding result is reported as “binds”.
For the molecule eIF3b (from UniProt P06103 1-763), the binding entry was “no binding (condition: without formaldehyde cross-linking)”.
Regarding B1, the binding result was “binds”.
With B6, the binding entry is on record as “binds”.
For the molecule B7, the binding result is reported as “binds”.
For the molecule B2, the binding entry is listed as “binds”.
As for B8, the binding result was “binds”.
Turning to B9, the binding entry is recorded as “binds”.
In the case of B10, the binding entry is “binds”.
With B11, the binding entry is recorded as “binds”.
For B5, the binding result is on record as “binds”.
